Measurements reported in PubChem BioAssay AID1259308 (NCATS, 2017)

Assay: 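Knock-downs that increase output of a recombinant reporter protein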 (primary screen)
System: human HEK293 embryonic kidney cells stably expressing firefly luciferase (HEK-CMV-Luc2-Hygro)
Reagent: single siRNA against human genes, 0.8 pmol siRNA per well
Duration: 72 h
Read-out: 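Reporter luminescence and viable-cell signal on separate replicate plates, given as percent of non-targeting control and median/MAD z-scores, plus per-cell luciferase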
Reading the numbers: total luciferase, z-score and total luciferase, % of control: higher = more reporter protein produced; luciferase per cell, z-score: higher = more reporter output per viable cell; viable cells, % of control: higher = more viable cells
Hit rule: 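Active when the median/MAD z-score for overall luciferase is greater than 3; a gene was taken forward for validation with new siRNAs if at least two of its three siRNAs passed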
Meaning of the calls: active = raised luciferase; inactive = no rise
The deposit covers about 59,000 reagents; below is an unselected part. About 1,510 of all reagents (2.6%) count as active. 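Calls use total luciferase alone and ignore viability, so some active siRNAs may act by altering cell number.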 Unmarked entries are inactive. Reagents against one gene are numbered here. No sequences are given here.

gene knocked down,reagent no.,"total luciferase, z-score","total luciferase, % of control","luciferase per cell, z-score","viable cells, % of control"
UPK1A (uroplakin 1A),1,0.837,98.5,1.06,83.2
UPK1A (uroplakin 1A),2,2.59,133,1.41,103
UPK1A (uroplakin 1A),3,-0.094,80,-0.0728,91.1
GPAA1 (glycosylphosphatidylinositol anchor attachment 1),1,-0.452,72.9,-0.655,96.8
GPAA1 (glycosylphosphatidylinositol anchor attachment 1),2,2.12,124,1.6,90.8
GPAA1 (glycosylphosphatidylinositol anchor attachment 1),3,-0.167,78.6,-0.327,95.7
FRMD7 (FERM domain containing 7),1,0.318,88.2,0.228,92.8
FRMD7 (FERM domain containing 7),2,1.76,117,1.58,86.1
FRMD7 (FERM domain containing 7),3,0.186,85.6,0.878,75.9
KCNAB2,1,-0.0621,80.7,-0.89,114
KCNAB2,2,2.01,122,1.49,92
KCNAB2,3,-0.224,77.4,-0.193,91
SLAMF6 (SLAM family member 6),1,-0.683,68.3,-0.372,84.2
SLAMF6 (SLAM family member 6),2,1.66,115,0.455,114
SLAMF6 (SLAM family member 6),3,-0.27,76.5,-0.478,97
IFI30 (IFI30 lysosomal thiol reductase),1,-0.301,75.9,-0.242,90.4
IFI30 (IFI30 lysosomal thiol reductase),2,-1.04,61.2,-1.01,89.4
IFI30 (IFI30 lysosomal thiol reductase),3,0.102,83.9,0.00111,93.7
MMP28 (matrix metallopeptidase 28),1,0.954,101,0.663,94.7
MMP28 (matrix metallopeptidase 28),2,-0.907,63.8,-1.69,111
MMP28 (matrix metallopeptidase 28),3,1.97,121,1.19,99
PRKACA (protein kinase cAMP-activated catalytic subunit alpha),1,-0.281,76.3,-0.141,88.5
PRKACA (protein kinase cAMP-activated catalytic subunit alpha),2,-2.11,39.9,-2.57,87.6
PRKACA (protein kinase cAMP-activated catalytic subunit alpha),3,3.02 (active),142,2.19,89
LTBP1 (latent transforming growth factor beta binding protein 1),1,-0.305,75.8,-0.46,95.6
LTBP1 (latent transforming growth factor beta binding protein 1),2,-0.138,79.2,-0.0683,90.1
LTBP1 (latent transforming growth factor beta binding protein 1),3,1.68,115,1.99,76.2
DCX (doublecortin),1,0.842,98.6,1.08,83
DCX (doublecortin),2,-0.782,66.3,0.323,68.1
DCX (doublecortin),3,-1.03,61.4,-1.09,91.4
MIR9-3HG (MIR9-3 host gene),1,-1.93,43.4,-2.88,104
MIR9-3HG (MIR9-3 host gene),2,0.326,88.4,-0.536,114
MIR9-3HG (MIR9-3 host gene),3,-1.59,50.2,-0.734,68.1
FAM163A (family with sequence similarity 163 member A),1,1.2,106,1.47,80.1
FAM163A (family with sequence similarity 163 member A),2,1.79,118,0.954,102
FAM163A (family with sequence similarity 163 member A),3,-0.202,77.9,-0.233,92.5

Single entries from above.
Entry of KCNAB2 #1 in “viable cells, % of control”: 114
LTBP1 (latent transforming growth factor beta binding protein 1) #1, total luciferase, % of control → 75.8
FAM163A (family with sequence similarity 163 member A) #3, viable cells, % of control = 92.5
For “viable cells, % of control”, FAM163A (family with sequence similarity 163 member A) #2 reads 102
For “total luciferase, z-score”, SLAMF6 (SLAM family member 6) #1 reads -0.683

The list goes on.
gene knocked down,reagent no.,"total luciferase, z-score","total luciferase, % of control","luciferase per cell, z-score","viable cells, % of control"
"PPM1E (protein phosphatase, Mg2+/Mn2+ dependent 1E)",1,-1.15,59,-1.09,87.8
"PPM1E (protein phosphatase, Mg2+/Mn2+ dependent 1E)",2,0.633,94.5,-0.0582,107
"PPM1E (protein phosphatase, Mg2+/Mn2+ dependent 1E)",3,-1.47,52.7,-2.15,104
"DBI (diazepam binding inhibitor, acyl-CoA binding protein)",1,0.212,86.1,-0.575,112
"DBI (diazepam binding inhibitor, acyl-CoA binding protein)",2,-3.32,15.9,-2.93,38.3
"DBI (diazepam binding inhibitor, acyl-CoA binding protein)",3,-0.213,77.6,-0.51,99.2
MAGEB10 (MAGE family member B10),1,0.568,93.2,2.68,51.5
MAGEB10 (MAGE family member B10),2,0.569,93.2,0.526,90.7
MAGEB10 (MAGE family member B10),3,-2.13,39.6,-1.08,58.9
MRGPRX4 (MAS related GPR family member X4),1,0.784,97.5,0.202,103
MRGPRX4 (MAS related GPR family member X4),2,-1.27,56.5,-1.57,95.5
MRGPRX4 (MAS related GPR family member X4),3,0.7,95.8,0.22,101
DNAJC9 (DnaJ heat shock protein family (Hsp40) member C9),1,0.503,91.9,0.125,99.3
DNAJC9 (DnaJ heat shock protein family (Hsp40) member C9),2,-1.84,45.2,-2.03,86.2
DNAJC9 (DnaJ heat shock protein family (Hsp40) member C9),3,-0.154,78.8,-0.529,101
TMOD1 (tropomodulin 1),1,-0.0712,80.5,0.784,73.2
TMOD1 (tropomodulin 1),2,-1,61.9,-0.385,76.6
TMOD1 (tropomodulin 1),3,3.21 (active),146,2.98,74.3
STEAP2 (STEAP2 metalloreductase),1,1.02,102,1.39,79.2
STEAP2 (STEAP2 metalloreductase),2,-1.34,55.2,-0.457,69.6
STEAP2 (STEAP2 metalloreductase),3,0.804,97.9,0.658,92
BAHD1 (bromo adjacent homology domain containing 1),1,1.06,103,0.989,88.7
BAHD1 (bromo adjacent homology domain containing 1),2,1.26,107,0.982,92.3
BAHD1 (bromo adjacent homology domain containing 1),3,-1.97,42.8,-3.48,119
"FAM185BP (family with sequence similarity 185 member B, pseudogene)",1,0.107,84,0.234,88.3
"FAM185BP (family with sequence similarity 185 member B, pseudogene)",2,1.63,114,2.08,73.9
"FAM185BP (family with sequence similarity 185 member B, pseudogene)",3,1.51,112,1.2,91.2
MYO5C (myosin VC),1,0.652,94.9,0.155,102
MYO5C (myosin VC),2,0.234,86.5,-0.136,100
MYO5C (myosin VC),3,0.863,99.1,0.621,94
ENTPD2 (ectonucleoside triphosphate diphosphohydrolase 2),1,-1.05,61,1.31,48.3
ENTPD2 (ectonucleoside triphosphate diphosphohydrolase 2),2,-0.754,66.9,-0.806,92.4
ENTPD2 (ectonucleoside triphosphate diphosphohydrolase 2),3,-1.24,57.3,-2.16,113
KRTAP5-2 (keratin associated protein 5-2),1,1.23,106,1.78,74.4
KRTAP5-2 (keratin associated protein 5-2),2,-0.0483,80.9,-0.0563,91.8
KRTAP5-2 (keratin associated protein 5-2),3,-0.801,66,-0.324,80.3
TENT5B (terminal nucleotidyltransferase 5B),1,0.189,85.7,0.415,85.8
TENT5B (terminal nucleotidyltransferase 5B),2,0.0727,83.3,0.611,79.3
TENT5B (terminal nucleotidyltransferase 5B),3,0.538,92.6,0.101,101
